Results are given in words; binding and its absence hold for the method and conditions named. For part of these data: Binding seen in cells or lysates may run through a third protein. Some entries that bind do so weakly or less than the wild type. For part of these data: Where a sequence is shown, tags or fusion partners need not be part of it.
Assays:
[1] = molecular target: SUN2 BiFC fusion carrying the Venus-tag on the nucleoplasmic N-terminus (UniProt Q9UH99); assay: split reporter; Venus BiFC (amino acids 1-157 and 158-238) in transfected HeLa cells, 1 hr at 30°C before fixation, confocal microscopy
[2] = molecular target: SUN2 (yeast two hybrid, data not shown) (UniProt Q9UH99); assay: two-hybrid; yeast two hybrid analysis, data not shown

Amino acid sequences for entries named in this document (tags omitted).
UniProt Q9UH99: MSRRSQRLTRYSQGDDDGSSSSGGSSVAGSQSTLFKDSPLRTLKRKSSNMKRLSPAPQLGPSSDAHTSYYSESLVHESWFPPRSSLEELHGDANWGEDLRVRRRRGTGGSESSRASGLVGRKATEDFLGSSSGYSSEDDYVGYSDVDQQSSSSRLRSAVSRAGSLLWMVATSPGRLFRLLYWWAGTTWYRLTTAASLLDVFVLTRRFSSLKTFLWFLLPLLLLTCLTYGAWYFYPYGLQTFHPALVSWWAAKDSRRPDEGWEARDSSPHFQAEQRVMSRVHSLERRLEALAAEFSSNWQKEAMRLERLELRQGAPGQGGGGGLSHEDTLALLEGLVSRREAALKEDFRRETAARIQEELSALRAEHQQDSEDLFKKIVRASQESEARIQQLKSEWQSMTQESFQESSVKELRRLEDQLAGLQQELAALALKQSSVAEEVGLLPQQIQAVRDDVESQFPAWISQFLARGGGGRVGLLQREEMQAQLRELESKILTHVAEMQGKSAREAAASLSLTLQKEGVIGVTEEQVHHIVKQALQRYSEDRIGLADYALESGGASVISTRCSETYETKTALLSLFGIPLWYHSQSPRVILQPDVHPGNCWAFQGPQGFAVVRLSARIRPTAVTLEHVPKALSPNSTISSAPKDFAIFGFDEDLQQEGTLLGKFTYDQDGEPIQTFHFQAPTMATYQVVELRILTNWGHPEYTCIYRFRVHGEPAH

B1: SIPA1 BiFC fusion (Venus fragment) (protein, UniProt Q96FS4 1-1042)
chain: MPMWAGGVGSPRRGMAPASTDDLFARKLRQPARPPLTPHTFEPRPVRGPLLRSGSDAGEARPPTPASPRARAHSHEEASRPAATSTRLFTDPLALLGLPAEEPEPAFPPVLEPRWFAHYDVQSLLFDWAPRSQGMGSHSEASSGTLASAEDQAASSDLLHGAPGFVCELGGEGELGLGGPASPPVPPALPNAAVSILEEPQNRTSAYSLEHADLGAGYYRKYFYGKEHQNFFGMDESLGPVAVSLRREEKEGSGGGTLHSYRVIVRTTQLRTLRGTISEDALPPGPPRGLSPRKLLEHVAPQLSPSCLRLGSASPKVPRTLLTLDEQVLSFQRKVGILYCRAGQGSEEEMYNNQEAGPAFMQFLTLLGDVVRLKGFESYRAQLDTKTDSTGTHSLYTTYQDHEIMFHVSTMLPYTPNNQQQLLRKRHIGNDIVTIVFQEPGSKPFCPTTIRSHFQHVFLVVRAHTPCTPHTTYRVAVSRTQDTPAFGPALPAGGGPFAANADFRAFLLAKALNGEQAAGHARQFHAMATRTRQQYLQDLATNEVTTTSLDSASRFGLPSLGGRRRAAPRGPGAELQAAGSLVWGVRAAPGARVAAGAQASGPEGIEVPCLLGISAEALVLVAPRDGRVVFNCACRDVLAWTFSEQQLDLYHGRGEAITLRFDGSPGQAVGEVVARLQLVSRGCETRELALPRDGQGRLGFEVDAEGFVTHVERFTFAETAGLRPGARLLRVCGQTLPSLRPEAAAQLLRSAPKVCVTVLPPDESGRPRRSFSELYTLSLQEPSRRGAPDPVQDEVQGVTLLPTTKQLLHLCLQDGGSPPGPGDLAEERTEFLHSQNSLSPRSSLSDEAPVLPNTTPDLLLATTAKPSVPSADSETPLTQDRPGSPSGSEDKGNPAPELRASFLPRTLSLRNSISRIMSEAGSGTLEDEWQAISEIASTCNTILESLSREGQPIPESGDPKGTPKSDAEPEPGNLSEKVSHLESMLRKLQEDLQKEKADRAALEEEVRSLRHNNRRLQAESESAATRLLLASKQLGSPTADLA
binding [1]: binds

B2: SIPA1 (yeast two hybrid, data not shown) (protein, UniProt Q96FS4 1-1042)
chain: B1 chain
binding [2]: binds

B3: RRP1B BiFC fusion (Venus fragment) (protein, UniProt Q14684 1-758)
chain: MAPAMQPAEIQFAQRLASSEKGIRDRAVKKLRQYISVKTQRETGGFSQEELLKIWKGLFYCMWVQDEPLLQEELANTIAQLVHAVNNSAAQHLFIQTFWQTMNREWKGIDRLRLDKYYMLIRLVLRQSFEVLKRNGWEESRIKVFLDVLMKEVLCPESQSPNGVRFHFIDIYLDELSKVGGKELLADQNLKFIDPFCKIAAKTKDHTLVQTIARGVFEAIVDQSPFVPEETMEEQKTKVGDGDLSAEEIPENEVSLRRAVSKKKTALGKNHSRKDGLSDERGRDDCGTFEDTGPLLQFDYKAVADRLLEMTSRKNTPHFNRKRLSKLIKKFQDLSEGSSISQLSFAEDISADEDDQILSQGKHKKKGNKLLEKTNLEKEKGSRVFCVEEEDSESSLQKRRRKKKKKHHLQPENPGPGGAAPSLEQNRGREPEASGLKALKARVAEPGAEATSSTGEESGSEHPPAVPMHNKRKRPRKKSPRAHREMLESAVLPPEDMSQSGPSGSHPQGPRGSPTGGAQLLKRKRKLGVVPVNGSGLSTPAWPPLQQEGPPTGPAEGANSHTTLPQRRRLQKKKAGPGSLELCGLPSQKTASLKKRKKMRVMSNLVEHNGVLESEAGQPQALGSSGTCSSLKKQKLRAESDFVKFDTPFLPKPLFFRRAKSSTATHPPGPAVQLNKTPSSSKKVTFGLNRNMTAEFKKTDKSILVSPTGPSRVAFDPEQKPLHGVLKTPTSSPASSPLVAKKPLTTTPRRRPRAMDFF
binding [1]: binds
